Reference: PubChem BioAssay AID1347423 (Functional Genomics Laboratory (NCATS/FGL), 2020)
Among all 52,000 sequences or so, about 210 (0.4%) were called active.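 How the source made its calls: active means gene whose silencing raises cell survival under the drug, median off-target-corrected z-score across its silencing RNAs 2 or more; inactive means the rest.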 The list shows a part of the results.

Assay: Resistance to Poly (ADP-Ribose) Polymerase inhibitor: Gene Identification via Genome-wide siRNA Screen
Details: mouse BRCA2 R2336H ES cells, olaparib, CellTiter-Glo viability; stronger effect = higher value
Summary of the method: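 Genome-wide siRNA screen (3 siRNAs/gene, 20 nM) in mouse ES cells carrying hypomorphic BRCA2 R2336H; olaparib 500 nM added 48 h post-transfection, CellTiter-Glo viability 72 h later. Normalized to plate-median negative control; MAD z-scores, gene median, seed-adjusted.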
With GCUAGAAGUCAUUUUGAAATT against Mme the z-score was inactive: -0.106. For “GCUAAGAUGAUGUCCUUGUTT against D12Ertd647e”, the z-score was inactive: -1.36. With GCUGAUACCGUCAUGAAUGTT against Gorasp2 the z-score was inactive: 0.422. With GGCUGUACUUCUGUCCCAUTT against Hus1b the z-score was inactive: -0.651. With GCAUUGACAAUACGACCAGTT against Sgol1 the z-score was inactive: -2.61. With CCUAUUGAAAAGCCAAACUTT against MGC48079 the z-score was inactive: 1.59. In the case of GGAAAGAGACAGAAGAAGCTT against Lrpb7, the z-score is reported as inactive: -0.392. For GGAUUAAAGAUGCUUCCAATT against BC002199, the z-score was inactive: -0.422. For GGACUCAUUUGUGAACAGCTT against Centg3, the z-score was inactive: 0.563. With GCGACUUUAGCUAAACAUGTT against Kcns2 the z-score was inactive: 2.6. In the case of GCUAUUUUCAUACAUUCCCTT against Bzrap1, the z-score is reported as inactive: 0.447. With GCCUACAACUACUGAAACCTT against Ifnt1 the z-score was inactive: -0.596. In the case of GGAUUGUUAGCAAAGAAAGTT against Aco1, the z-score is reported as inactive: -0.228. In the case of “GGAAUCGUUUUUGCUUAGATT against 1200013F24Rik”, the z-score is reported as inactive: -1.2. For GCAACAUUCCUACAAUUAATT against Gsta4, the z-score was inactive: 0.155. With GGAGACUCCUUACGGCAAATT against Bnip1 the z-score was inactive: 0.535. For GGCUUUCUUUGACUGUCUCTT against Rdh6, the z-score was inactive: -0.481. In the case of GGAAAUGACCUUGGUGUGUTT against Olfr644, the z-score is reported as inactive: -2.66. In the case of GGUGGCCUUUCCUCGAAGATT against Msi1h, the z-score is reported as inactive: -0.655. With GGUGGUUAUUUAUUGGUGATT against Sp6 the z-score was inactive: -0.0325. For CGAAAUGAAAACUUCCUGGTT against Mab21l1, the z-score was inactive: 0.64. With GGACCUGUGUGCUGAGUUGTT against Matn4 the z-score was inactive: 0.692. With GGAGCUUCAUCUUUCAAGATT against Uqcrc2 the z-score was inactive: 0.483. With “CUCCGACCAUACUGGAAGATT against 0710001E13Rik” the z-score was inactive: 0.691. With ACUAUCUGUACAACGUGCUTT against Kcnq5 the z-score was inactive: 1.37. For “CGUAUUGUUUCCUAGCACATT against 9130221D24Rik”, the z-score was inactive: 2.43. In the case of GCCCUAGUCUUCUACAGCUTT against Gpr18, the z-score is reported as inactive: 1.38. With GCAUUAGAAGAACUACUGATT against Gdpd2 the z-score was inactive: 0.606. In the case of GCCACGUAUAACCACGACATT against Spag4l, the z-score is reported as inactive: -0.884. For GGACUCUUUCGCUGCAUGATT against Sucla2, the z-score was inactive: 0.376. For “GGUAUAAUCAAAGGAUAUCTT against C430003P19Rik”, the z-score was inactive: -0.752. In the case of GGUGGAUAUAAUAAUUGACTT against Tgfbr3, the z-score is reported as inactive: 0.733. For CCUAUGGUAGAAAAAUACUTT against Fundc1, the z-score was inactive: 0.518. In the case of GGUCUGCUAUGAAAUUAUGTT against Tmem14c, the z-score is reported as inactive: 1.43. In the case of CCUAGUAGCUCAGACACCGTT against Evx1, the z-score is reported as inactive: -0.339. For CCCUCAUUGUGGUUACCAUTT against Olfr1428, the z-score was inactive: 1.63. In the case of GGACUAAGCAAUCUCUUUUTT against Gspt2, the z-score is reported as inactive: -0.537. In the case of GGAGGAACUCGAAUCUCAGTT against Adamts19, the z-score is reported as inactive: 2.03. In the case of “GCCCAACGUGGUGUACAUUTT against 1110032E23Rik”, the z-score is reported as inactive: -0.325. For “CCUUAAAACUUCAGGGCUCTT against 1700055D18Rik”, the z-score was inactive: -0.703. In the case of “CCACCAGUUAUCCGAAUCATT against 4932414N04Rik”, the z-score is reported as inactive: 2.62. In the case of GCUUGUCCACAUUGCCUUCTT against Olfr33, the z-score is reported as inactive: -0.743. With “GCACUUGAACCGUGAGUGUTT against 2610034H20Rik” the z-score was inactive: 1.48. With “GGCAUAUGCAUGUUAUAUCTT against E330009P21Rik” the z-score was inactive: 0.0984. With GGACCAAGACCGAUGUGUATT against Ccrl1 the z-score was inactive: 0.529. For “GGUGCUGGAGAAAACCUUGTT against 2610020H15Rik”, the z-score was inactive: -0.121. With GGUGGAUGAAGAGUAUAAGTT against Phka2 the z-score was inactive: 1.09. For “GGAGACCAUGAAUUUAAUGTT against 1300018I05Rik”, the z-score was inactive: 0.284. For CGCCCUUGGAGGUUAAUCATT against Nsg2, the z-score was inactive: -2.06. In the case of CGAGAUAAACCAUACCUGGTT against Zfp61, the z-score is reported as inactive: -0.27. For GGCAACAGACAAACAGCCGTT against Ugcg, the z-score was inactive: 0.181. For GGCAAUGGAGUUUCAAUUUTT against Stard5, the z-score was inactive: 0.195. In the case of GGCUUUUGAAAAGUUCACATT against Rnf32, the z-score is reported as inactive: -0.0695. In the case of CCUCAACUGGUUCCCUAACTT against Spatc1, the z-score is reported as inactive: -0.181. With GGGUUUGAGGAAGUUAAGATT against Slc5a3 the z-score was inactive: 0.232. In the case of “GGCUGUAUAAAUCAGAUUATT against 1600012H06Rik”, the z-score is reported as inactive: 0.0132. In the case of GGCGGUCAAAUACAAAAGGTT against Pde1a, the z-score is reported as inactive: 0.7. For GGGUUUCUUCCUUGUCAGATT against Abcc3, the z-score was inactive: 1.32. For “GGAGGAGGCAGAAACAACATT against 4930549C01Rik”, the z-score was inactive: -0.4. With GCAAGACCAGUGGAGUGGUTT against Sncb the z-score was inactive: 1.61. For GGUGUUGAAAUCGGUUUCCTT against Ube2v1, the z-score was inactive: -0.0537. In the case of GGAGUUAAUUGCCCGCAACTT against Rab19, the z-score is reported as inactive: -1.23. For GGCACUGAUGAUUAAGCUUTT against Gale, the z-score was inactive: -0.0723. For GGAUUCAAAGUGUGCACAATT against Lrrc3b, the z-score was inactive: -0.12. With GGACUAAGUGGACGGUUUATT against Txndc1 the z-score was inactive: 0.449. For GGCUGCCUAUCCCUAAACUTT against Cpt2, the z-score was inactive: -0.427. For CUGUGGACUUCCCUAAGAATT against NMS, the z-score was inactive: -1.13. In the case of GGAGCUUGCCUGAUUUUGCTT against Rfx1, the z-score is reported as inactive: 0.641. In the case of “GGUCUUUAACAACAUUGGATT against D10Ertd802e”, the z-score is reported as inactive: 0.12. In the case of GCCAGUGAUGGAAUUGUAATT against Rrm2b, the z-score is reported as inactive: -2.48. With “CGGACUCGAAAGAAGGAAUTT against 2810036K01Rik” the z-score was inactive: -0.205. In the case of GGAUGACAUUUCAGUGUGGTT against Matn4, the z-score is reported as inactive: 0.874. With GGAAUUUAAACUGAAGGAUTT against Fkbp9 the z-score was inactive: -0.292. For GGACAACCAAAUUCUCAAGTT against Olfml3, the z-score was inactive: 0.566. In the case of “GCAUAUCAACGCAGUGUCATT against 1700091F14Rik”, the z-score is reported as inactive: 1.63. For GCCUCAAAAUGGCGGAACUTT against Casp8, the z-score was inactive: 2.49. In the case of GAAGAAGGAAAAAAACCCATT against Sec61b, the z-score is reported as inactive: 0.769. With GGUGUUUGGGAAAGGUCUGTT against Trpm1 the z-score was inactive: 1.13. For GGCCAGAUAGCAAAACAGCTT against Mpst, the z-score was inactive: 1.1. In the case of GGAGAUUGAACAGUCAAACTT against Pex5, the z-score is reported as inactive: -0.782. In the case of GGCAGAAGCAGAUAUUAGATT against Rbmxrt, the z-score is reported as inactive: -0.275. For GGUGGAGCUGGACAAGAAGTT against Nef3, the z-score was inactive: -2.44. In the case of GCUCAAAGCUUAUGAUUUCTT against Commd2, the z-score is reported as inactive: -0.35. In the case of GGCUGAGGCUGUGAAGAAGTT against Igfbp5, the z-score is reported as inactive: -0.203. With GCUCUUAGGGAAGAAUAUUTT against Arnt the z-score was inactive: 0.556. With “GGACAAUUCCAGUCAAUAATT against 2310061I09Rik” the z-score was inactive: -1.92. In the case of GAAUGAACUGCUGAAAAAGTT against Klra16, the z-score is reported as inactive: -0.479. In the case of “GGCGGUGAUAUUCUAGAAGTT against E130119P06Rik”, the z-score is reported as inactive: -0.519. With GCUUAUAGGCCUAUAUGCCTT against Inppl1 the z-score was inactive: 0.179. For GGUGUAUGGAUUUUAUGAUTT against Ppp6c, the z-score was inactive: -1.68. With GGUUUGCUGAAUGUCAUUUTT against Magea2 the z-score was inactive: 0.85. With GGUGAGACAGAUAAAGUUCTT against Olfr1125 the z-score was inactive: 0.558. In the case of CCCACUGUACAUUUGUAAATT against Mpn, the z-score is reported as inactive: -0.339. In the case of GGAUGAAACAAGUGAAGAUTT against Papola, the z-score is reported as inactive: 1.66. In the case of CGGUAUCUCAACUUUUACATT against Stra8, the z-score is reported as inactive: 0.301. For GGAUGGGACUUUUGAAAAATT against Cd3z, the z-score was inactive: -0.45. For “GGACAUACCGAGAAGAUUGTT against 3110001D03Rik”, the z-score was inactive: 1.59. In the case of GGAAGAGGUCUUGAUCCACTT against Kelchl, the z-score is reported as inactive: -0.841. With GCUGCUAUGACCUAUGGCATT against Sptlc2 the z-score was inactive: 0.991. For CCCAAUGUCCCAACUCACATT against Baalc, the z-score was inactive: -1.48. For GGCAAUGAGUCUGACCUCUTT against Capg, the z-score was inactive: 0.928. In the case of GCCAGAAUUUUAGCUAGUATT against Tnfaip9, the z-score is reported as inactive: 0.328. With GGCAGAAUUUGAGCACUUUTT against Galgt2 the z-score was inactive: 1.75. With GGACCUGGACCUUUUAGAGTT against Vegfb the z-score was inactive: 0.201. With GCUGUUGAUGUAGUUUGGUTT against Dctd the z-score was inactive: -0.213.
